Assay results reported in the supplement of paper PMC10849652.
Some of the results follow.

Sequences of proteins named here, by UniProt entry; tags and fusion partners are left off. A change or cut given only in a name is not applied to a line headed by its entry.
UniProt Q9ULC4: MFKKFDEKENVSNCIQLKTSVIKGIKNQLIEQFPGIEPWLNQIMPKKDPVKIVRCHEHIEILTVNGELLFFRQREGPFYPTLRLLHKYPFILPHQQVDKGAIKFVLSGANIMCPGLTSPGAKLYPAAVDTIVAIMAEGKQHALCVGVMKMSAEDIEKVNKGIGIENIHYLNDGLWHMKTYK
UniProt P40926: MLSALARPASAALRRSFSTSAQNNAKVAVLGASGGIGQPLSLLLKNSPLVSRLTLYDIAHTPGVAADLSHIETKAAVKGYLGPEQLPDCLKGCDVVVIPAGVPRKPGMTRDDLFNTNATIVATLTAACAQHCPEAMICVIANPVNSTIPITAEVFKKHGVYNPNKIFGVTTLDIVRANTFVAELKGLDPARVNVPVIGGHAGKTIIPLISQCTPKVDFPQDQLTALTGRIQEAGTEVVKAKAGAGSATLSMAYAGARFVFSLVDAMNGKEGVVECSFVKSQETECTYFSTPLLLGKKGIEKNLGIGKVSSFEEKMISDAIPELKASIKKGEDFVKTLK
UniProt Q16626: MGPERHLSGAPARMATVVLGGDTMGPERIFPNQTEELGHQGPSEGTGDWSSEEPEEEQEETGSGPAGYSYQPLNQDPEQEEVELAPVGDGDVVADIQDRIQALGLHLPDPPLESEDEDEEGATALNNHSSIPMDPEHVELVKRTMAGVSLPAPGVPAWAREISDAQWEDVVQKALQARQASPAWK
UniProt Q9NRN9: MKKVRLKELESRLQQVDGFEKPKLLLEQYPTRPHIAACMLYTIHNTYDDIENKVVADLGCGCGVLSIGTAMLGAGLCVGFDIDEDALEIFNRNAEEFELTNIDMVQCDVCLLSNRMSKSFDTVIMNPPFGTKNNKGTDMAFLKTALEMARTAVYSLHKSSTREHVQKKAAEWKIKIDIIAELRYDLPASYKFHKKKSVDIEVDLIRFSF
UniProt Q9P086: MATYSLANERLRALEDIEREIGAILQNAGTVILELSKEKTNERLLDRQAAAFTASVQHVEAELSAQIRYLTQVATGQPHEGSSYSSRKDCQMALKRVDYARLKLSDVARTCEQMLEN
UniProt Q71F56: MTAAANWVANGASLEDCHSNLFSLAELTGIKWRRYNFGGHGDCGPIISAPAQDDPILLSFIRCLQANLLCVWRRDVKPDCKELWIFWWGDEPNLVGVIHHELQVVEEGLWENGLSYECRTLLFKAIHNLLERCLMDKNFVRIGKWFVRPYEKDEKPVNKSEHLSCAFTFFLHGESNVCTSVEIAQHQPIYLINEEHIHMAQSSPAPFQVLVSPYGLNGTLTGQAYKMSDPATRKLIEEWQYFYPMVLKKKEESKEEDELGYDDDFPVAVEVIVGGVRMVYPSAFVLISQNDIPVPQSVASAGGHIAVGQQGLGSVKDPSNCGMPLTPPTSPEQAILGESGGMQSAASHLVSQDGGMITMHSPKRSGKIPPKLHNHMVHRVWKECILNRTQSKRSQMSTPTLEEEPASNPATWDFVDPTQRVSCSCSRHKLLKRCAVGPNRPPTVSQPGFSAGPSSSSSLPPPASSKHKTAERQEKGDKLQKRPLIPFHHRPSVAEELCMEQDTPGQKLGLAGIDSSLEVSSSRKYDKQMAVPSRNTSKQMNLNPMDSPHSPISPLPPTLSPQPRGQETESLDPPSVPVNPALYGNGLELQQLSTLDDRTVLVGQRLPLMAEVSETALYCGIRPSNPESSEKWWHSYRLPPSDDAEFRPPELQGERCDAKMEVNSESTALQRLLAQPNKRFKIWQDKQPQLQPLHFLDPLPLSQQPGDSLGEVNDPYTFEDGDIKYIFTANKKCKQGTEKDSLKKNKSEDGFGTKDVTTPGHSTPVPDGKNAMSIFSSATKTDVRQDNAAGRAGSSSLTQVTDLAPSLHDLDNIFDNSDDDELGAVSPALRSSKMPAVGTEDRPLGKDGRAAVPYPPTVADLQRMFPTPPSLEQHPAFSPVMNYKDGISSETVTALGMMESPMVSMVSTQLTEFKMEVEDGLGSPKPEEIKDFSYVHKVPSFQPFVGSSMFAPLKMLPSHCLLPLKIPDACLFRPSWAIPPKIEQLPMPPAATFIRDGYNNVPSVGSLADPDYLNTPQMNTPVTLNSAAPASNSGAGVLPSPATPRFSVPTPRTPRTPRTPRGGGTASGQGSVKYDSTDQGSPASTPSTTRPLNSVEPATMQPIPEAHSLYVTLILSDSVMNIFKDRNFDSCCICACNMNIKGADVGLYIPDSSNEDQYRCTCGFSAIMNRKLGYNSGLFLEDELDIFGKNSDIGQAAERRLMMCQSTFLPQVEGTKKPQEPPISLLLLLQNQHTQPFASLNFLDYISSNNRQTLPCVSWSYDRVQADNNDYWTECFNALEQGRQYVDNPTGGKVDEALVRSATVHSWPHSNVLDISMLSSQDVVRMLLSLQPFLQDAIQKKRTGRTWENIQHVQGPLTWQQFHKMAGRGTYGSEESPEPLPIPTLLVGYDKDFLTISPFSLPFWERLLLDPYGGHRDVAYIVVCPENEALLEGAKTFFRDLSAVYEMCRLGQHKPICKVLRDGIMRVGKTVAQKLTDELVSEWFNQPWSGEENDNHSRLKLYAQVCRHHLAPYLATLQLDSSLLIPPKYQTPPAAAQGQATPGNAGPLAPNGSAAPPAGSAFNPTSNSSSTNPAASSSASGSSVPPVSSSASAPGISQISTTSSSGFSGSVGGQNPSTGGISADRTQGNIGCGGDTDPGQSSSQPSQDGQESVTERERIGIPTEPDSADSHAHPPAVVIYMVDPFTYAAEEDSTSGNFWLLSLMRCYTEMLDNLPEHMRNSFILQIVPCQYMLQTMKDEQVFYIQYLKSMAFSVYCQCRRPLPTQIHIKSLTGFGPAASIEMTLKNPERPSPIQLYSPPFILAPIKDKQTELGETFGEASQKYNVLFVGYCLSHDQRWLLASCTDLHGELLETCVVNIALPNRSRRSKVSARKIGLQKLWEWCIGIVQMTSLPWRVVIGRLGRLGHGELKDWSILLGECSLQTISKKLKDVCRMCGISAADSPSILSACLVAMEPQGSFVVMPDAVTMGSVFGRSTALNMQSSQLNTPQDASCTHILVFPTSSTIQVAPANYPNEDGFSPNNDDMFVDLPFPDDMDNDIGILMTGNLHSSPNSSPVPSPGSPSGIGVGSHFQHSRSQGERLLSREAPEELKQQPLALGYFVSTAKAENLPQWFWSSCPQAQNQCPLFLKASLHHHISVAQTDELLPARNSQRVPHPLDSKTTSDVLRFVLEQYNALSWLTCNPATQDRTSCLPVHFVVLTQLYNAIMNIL
UniProt P51608, whole entry, looked up: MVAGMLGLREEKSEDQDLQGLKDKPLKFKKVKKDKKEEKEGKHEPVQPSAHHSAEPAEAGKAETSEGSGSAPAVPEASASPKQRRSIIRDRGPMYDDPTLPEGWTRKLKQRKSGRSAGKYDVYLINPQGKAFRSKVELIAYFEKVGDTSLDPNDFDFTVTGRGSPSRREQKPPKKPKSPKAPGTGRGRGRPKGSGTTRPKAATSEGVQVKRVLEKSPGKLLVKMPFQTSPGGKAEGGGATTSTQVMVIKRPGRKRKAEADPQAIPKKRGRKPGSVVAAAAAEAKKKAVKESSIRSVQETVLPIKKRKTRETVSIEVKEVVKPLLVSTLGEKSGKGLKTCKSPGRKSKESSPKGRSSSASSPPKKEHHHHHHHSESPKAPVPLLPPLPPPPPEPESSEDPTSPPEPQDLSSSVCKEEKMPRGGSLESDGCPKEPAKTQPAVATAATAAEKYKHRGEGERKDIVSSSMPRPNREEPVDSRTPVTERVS
UniProt O60244: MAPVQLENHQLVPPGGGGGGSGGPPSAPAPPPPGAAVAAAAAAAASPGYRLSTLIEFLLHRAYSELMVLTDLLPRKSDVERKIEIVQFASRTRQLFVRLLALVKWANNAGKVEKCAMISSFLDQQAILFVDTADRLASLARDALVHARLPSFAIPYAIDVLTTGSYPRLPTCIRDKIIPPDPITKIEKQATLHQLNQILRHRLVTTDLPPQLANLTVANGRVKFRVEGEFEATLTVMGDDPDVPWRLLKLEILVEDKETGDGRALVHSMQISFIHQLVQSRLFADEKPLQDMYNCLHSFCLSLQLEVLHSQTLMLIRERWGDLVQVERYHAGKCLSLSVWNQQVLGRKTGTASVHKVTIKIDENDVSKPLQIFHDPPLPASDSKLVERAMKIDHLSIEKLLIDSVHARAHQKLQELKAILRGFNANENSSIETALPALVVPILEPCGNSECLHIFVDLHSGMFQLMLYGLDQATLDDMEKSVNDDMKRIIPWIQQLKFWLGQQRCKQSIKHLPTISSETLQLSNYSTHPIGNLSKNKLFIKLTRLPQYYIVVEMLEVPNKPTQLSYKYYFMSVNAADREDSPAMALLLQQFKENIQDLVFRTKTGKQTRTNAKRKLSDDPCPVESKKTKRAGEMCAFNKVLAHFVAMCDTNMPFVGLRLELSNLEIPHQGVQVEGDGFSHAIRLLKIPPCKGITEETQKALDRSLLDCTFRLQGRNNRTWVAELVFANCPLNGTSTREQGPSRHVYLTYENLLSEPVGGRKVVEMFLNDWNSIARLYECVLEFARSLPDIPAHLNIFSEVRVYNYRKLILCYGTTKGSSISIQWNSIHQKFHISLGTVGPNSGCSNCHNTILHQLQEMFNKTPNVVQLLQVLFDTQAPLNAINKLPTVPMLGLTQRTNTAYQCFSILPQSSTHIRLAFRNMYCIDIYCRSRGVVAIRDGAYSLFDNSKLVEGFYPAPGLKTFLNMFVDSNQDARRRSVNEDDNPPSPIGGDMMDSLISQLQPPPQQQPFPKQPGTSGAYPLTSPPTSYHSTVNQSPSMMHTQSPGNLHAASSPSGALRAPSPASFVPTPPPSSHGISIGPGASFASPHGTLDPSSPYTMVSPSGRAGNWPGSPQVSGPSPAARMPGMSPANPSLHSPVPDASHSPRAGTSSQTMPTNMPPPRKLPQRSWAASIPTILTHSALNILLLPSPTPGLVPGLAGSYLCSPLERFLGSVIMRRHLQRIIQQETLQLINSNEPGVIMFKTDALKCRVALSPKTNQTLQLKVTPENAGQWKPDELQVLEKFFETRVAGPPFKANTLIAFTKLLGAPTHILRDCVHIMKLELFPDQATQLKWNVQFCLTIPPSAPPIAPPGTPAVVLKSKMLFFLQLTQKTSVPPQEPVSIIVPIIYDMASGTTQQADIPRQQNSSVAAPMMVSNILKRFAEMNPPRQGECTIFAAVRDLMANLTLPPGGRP
UniProt Q9NS73: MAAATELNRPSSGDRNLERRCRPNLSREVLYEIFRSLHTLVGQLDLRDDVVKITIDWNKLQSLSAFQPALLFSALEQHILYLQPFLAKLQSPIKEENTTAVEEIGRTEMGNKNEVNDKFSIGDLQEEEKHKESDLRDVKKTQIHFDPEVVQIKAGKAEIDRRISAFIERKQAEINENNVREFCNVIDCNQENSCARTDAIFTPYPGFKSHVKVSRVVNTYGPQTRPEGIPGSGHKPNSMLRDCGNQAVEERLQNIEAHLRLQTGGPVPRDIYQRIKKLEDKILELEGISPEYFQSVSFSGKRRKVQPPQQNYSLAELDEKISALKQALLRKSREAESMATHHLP
UniProt Q9Y4C4: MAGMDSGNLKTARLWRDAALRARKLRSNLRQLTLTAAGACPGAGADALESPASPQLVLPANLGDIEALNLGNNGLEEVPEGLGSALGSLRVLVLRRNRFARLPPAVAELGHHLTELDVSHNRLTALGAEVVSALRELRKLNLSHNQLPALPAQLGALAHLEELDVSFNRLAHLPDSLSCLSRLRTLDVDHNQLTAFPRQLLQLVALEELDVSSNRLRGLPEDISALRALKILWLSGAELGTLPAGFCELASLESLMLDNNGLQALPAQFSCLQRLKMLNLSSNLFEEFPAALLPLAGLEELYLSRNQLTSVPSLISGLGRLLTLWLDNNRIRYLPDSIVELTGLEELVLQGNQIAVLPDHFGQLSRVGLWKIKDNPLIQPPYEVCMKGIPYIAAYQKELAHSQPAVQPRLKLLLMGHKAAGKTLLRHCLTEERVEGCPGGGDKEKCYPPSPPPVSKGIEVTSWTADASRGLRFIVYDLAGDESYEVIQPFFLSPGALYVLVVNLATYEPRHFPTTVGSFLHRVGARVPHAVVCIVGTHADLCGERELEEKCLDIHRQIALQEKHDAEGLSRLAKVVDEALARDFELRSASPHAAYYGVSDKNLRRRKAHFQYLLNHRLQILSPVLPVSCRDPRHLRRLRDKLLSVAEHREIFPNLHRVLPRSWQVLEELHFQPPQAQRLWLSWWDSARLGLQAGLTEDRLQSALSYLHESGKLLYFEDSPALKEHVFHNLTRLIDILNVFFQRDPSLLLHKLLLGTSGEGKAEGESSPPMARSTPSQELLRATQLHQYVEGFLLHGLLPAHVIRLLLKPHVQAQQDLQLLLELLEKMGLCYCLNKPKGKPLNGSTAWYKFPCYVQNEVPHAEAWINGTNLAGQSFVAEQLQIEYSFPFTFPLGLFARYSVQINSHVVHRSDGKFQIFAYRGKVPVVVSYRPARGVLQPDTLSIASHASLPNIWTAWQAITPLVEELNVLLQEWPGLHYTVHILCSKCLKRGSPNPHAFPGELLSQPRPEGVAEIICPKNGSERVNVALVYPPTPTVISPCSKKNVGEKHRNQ

How the values were obtained:
Test in all cases: log2 fold change, soluble protein after heating vs DMSO (PISA); higher = thermal stabilisation; K562 lysate, 10 uM; active = over 0.2 and 3.5 SD of the protein, either way, in both replicates (recomputed)
[1] = compound: C1=CC=C(C=C1)[C@H](COC2=CC3=C(C=C2)NC(=O)N3)NC(=O)C4=CC=CN(C4=O)CC5=CC(=C(C=C5)F)F
Method in brief: (§1)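 Values give the log-two fold change in thermal stability against solvent controls, from duplicates. Crude K562 extract at 1 mg/mL protein, made by dounce homogenisation in PBS pH 7.4 with 1 mM MgCl2, was treated with 10 μM compound for 30 min. After 3 min heating across 48°C-58°C, aliquots were pooled, adjusted to 0.5% NP-40 at 4°C and centrifuged at 21,000xg for 90 min. The supernatant was measured by TMTpro 16plex LC-MS/MS with channel sums equalised.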

[2] = compound: CC1=C(SC2=C1C(=N[C@H](C3=NN=C(N32)C)CC(=O)N)C4=CC=C(C=C4)Cl)C
Method in brief: as §1

[3] = compound: CC1=C2C(=CC=C1)N=C(N(C2=O)C3=CC=CC=C3C)CN4C=NC5=C(N=CN=C54)N
Method in brief: as §1

[4] = compound: Cc1sc2c(c1C)C(c1ccc(Cl)cc1)=N[C@@H](CC(=O)OC(C)(C)C)c1nnc(C)n1-2
Method in brief: as §1

[5] = compound: c1ccc([C@@H]2C[C@H]2NC2CCNCC2)cc1
Method in brief: as §1

Measured: log2 fold change

MBD3 (UniProt O95983)
inactive: [1] 0.011 | [2] 0.005 | [3] -0.008 | [4] -0.021 | [5] -0.036

MEIS2 (UniProt O14770)
inactive: [1] 0.032 | [2] 0.02 | [3] 0.048 | [4] -0.038 | [5] 0.015

MCTS1 isoform 3 (UniProt Q9ULC4)
inactive: [1] 0.022 | [2] 0.019 | [3] -0.014 | [4] 0.031 | [5] 0.001

MDH2 (UniProt P40926)
inactive: [1] 0.014 | [2] 0.004 | [3] -0.017 | [4] 0.005 | [5] 0.049

METAP1D (UniProt Q6UB28)
inactive: [1] 0.036 | [2] 0.007 | [3] -0.104 | [4] 0.026 | [5] -0.007

MEA1 (UniProt Q16626)
inactive: [1] 0.064 | [2] 0.007 | [3] -0.045 | [4] -0.008 | [5] -0.025

METTL5 (UniProt Q9NRN9)
inactive: [1] 0.04 | [2] -0.006 | [3] -0.011 | [4] -0.014 | [5] -0.035

MBOAT7 (UniProt Q96N66)
inactive: [1] -0.088 | [2] 0.006 | [3] 0.088 | [4] -0.018 | [5] -0.014

MED11 (UniProt Q9P086)
inactive: [1] 0.001 | [2] 0.061 | [3] -0.12 | [4] 0.319

MED13L (UniProt Q71F56)
inactive: [1] -0.034 | [2] 0.029 | [3] 0.028 | [4] -0.095 | [5] 0.014

Pulled one by one from the list above, 2 records:
METTL5 (UniProt Q9NRN9)
inactive: [1] 0.04 | [2] -0.006 | [3] -0.011 | [4] -0.014 | [5] -0.035

MBOAT7 (UniProt Q96N66)
inactive: [1] -0.088 | [2] 0.006 | [3] 0.088 | [4] -0.018 | [5] -0.014

Next part.

MCRIP1 (UniProt I3L4Q0)
inactive: [1] 0.031 | [2] -0.11 | [3] -0.027 | [4] -0.052 | [5] 0.022

MECP2 isoform 2 (UniProt P51608)
inactive: [1] 0 | [2] 0.011 | [3] -0.055 | [4] 0.015 | [5] -0.094

MCU (UniProt Q8NE86)
inactive: [1] 0.021 | [2] 0.028 | [3] -0.031 | [4] -0.023 | [5] 0.015

MED14 (UniProt O60244)
inactive: [1] -0.037 | [2] 0.035 | [3] 0.034 | [4] -0.029 | [5] 0

MBIP (UniProt Q9NS73)
inactive: [1] 0.13 | [2] -0.042 | [3] 0.023 | [4] -0.086 | [5] 0.016

METTL5 (UniProt H0YFV5)
inactive: [1] 0.066 | [2] 0.004

MCRIP2 (UniProt Q9BUT9)
inactive: [1] 0.024 | [2] 0.019 | [3] 0.031 | [4] 0.027 | [5] -0.025

MCM3AP (UniProt O60318)
inactive: [1] -0.043 | [2] -0.006 | [3] -0.021 | [4] 0.021 | [5] 0.112

MEF2D (UniProt Q14814)
inactive: [1] 0.055 | [2] -0.06 | [3] 0.028 | [4] -0.005 | [5] 0

METTL14 (UniProt Q9HCE5)
inactive: [1] 0.019 | [2] 0.003 | [3] -0.002 | [4] 0.028 | [5] 0.024

MFHAS1 (UniProt Q9Y4C4)
inactive: [1] -0.238 | [2] 0.428 | [3] -0.335 | [4] -0.002

METAP2 (UniProt P50579)
inactive: [1] 0.026 | [2] -0.025 | [3] 0.024 | [4] 0.044 | [5] -0.107

MCM2 (UniProt P49736)
inactive: [1] -0.011 | [2] 0.022 | [3] 0.028 | [4] -0.004 | [5] -0.004

MCM5 (UniProt P33992)
inactive: [1] 0.016 | [2] 0.009 | [3] 0.009 | [4] -0.011 | [5] -0.017

METAP1 (UniProt P53582)
inactive: [1] -0.017 | [2] 0.025 | [3] -0.003 | [4] 0.044 | [5] -0.095
